Article PMC5500810
No constants are given. Whether binding was seen depends on the method and setting. Binding calls can cover weak binding; strength is not graded here. Where a sequence is shown, tags or fusion partners need not be part of it.

Chains of the proteins cited; added tags and fusions are not shown. Lines headed by an entry give the natural chain unless they say otherwise; changes in a name come on top.
UniProt Q15375: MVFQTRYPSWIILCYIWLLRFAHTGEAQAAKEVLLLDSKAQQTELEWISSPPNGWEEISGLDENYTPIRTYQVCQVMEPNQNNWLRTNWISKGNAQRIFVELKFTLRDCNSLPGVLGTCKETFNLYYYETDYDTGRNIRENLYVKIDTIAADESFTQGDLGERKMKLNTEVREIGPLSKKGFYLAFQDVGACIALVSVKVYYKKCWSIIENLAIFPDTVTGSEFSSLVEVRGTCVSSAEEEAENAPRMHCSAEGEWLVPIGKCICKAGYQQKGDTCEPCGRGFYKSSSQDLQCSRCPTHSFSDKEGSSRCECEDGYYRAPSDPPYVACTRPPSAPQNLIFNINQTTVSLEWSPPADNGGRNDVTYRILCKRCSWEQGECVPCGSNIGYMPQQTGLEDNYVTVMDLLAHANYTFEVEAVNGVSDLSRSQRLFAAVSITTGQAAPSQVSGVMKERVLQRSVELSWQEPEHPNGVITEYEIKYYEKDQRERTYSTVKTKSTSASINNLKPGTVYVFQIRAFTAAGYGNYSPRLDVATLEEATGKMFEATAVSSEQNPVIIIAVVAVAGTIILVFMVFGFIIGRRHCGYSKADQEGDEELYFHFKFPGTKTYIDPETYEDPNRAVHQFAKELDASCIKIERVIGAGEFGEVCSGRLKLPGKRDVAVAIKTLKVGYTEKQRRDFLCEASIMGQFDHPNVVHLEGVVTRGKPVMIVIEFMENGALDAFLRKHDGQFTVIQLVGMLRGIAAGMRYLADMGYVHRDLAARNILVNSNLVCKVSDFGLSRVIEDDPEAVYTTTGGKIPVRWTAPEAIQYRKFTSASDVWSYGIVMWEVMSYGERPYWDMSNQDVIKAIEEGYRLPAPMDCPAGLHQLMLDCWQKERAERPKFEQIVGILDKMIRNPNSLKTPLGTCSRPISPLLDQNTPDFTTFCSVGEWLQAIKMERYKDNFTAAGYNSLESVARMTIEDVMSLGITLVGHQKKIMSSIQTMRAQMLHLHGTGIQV

Biological target: human EphA7 (recombinant, EphA7/ephrin-A5 competition assay) (human) (UniProt Q15375)
Test: AlphaScreen or HTRF; competition: human EphA7 (3 nM) preincubated 1 h with increasing Nb, then biotinylated His-tagged human ephrin-A5 (30 nM); anti-IgG acceptor and streptavidin donor beads; 50 mM Hepes, 100 mM NaCl, 0.1% Triton, 0.1% BSA; both purified

binding: binds
B1: His-tagged human ephrin-A5 (Sino Biological), biotinylated (ligand, UniProt P52803 21-203)
chain: QDPGSKAVADRYAVYWNSSNPRFQRGDYHIDVCINDYLDVFCPHYEDSVPEDKTERYVLYMVNFDGYSACDHTSKGFKRWECNRPHSPNGPLKFSEKFQLFTPFSLGFEFRPGREYFYISSAIPDNGRRSCLKLKVFVRPTNSCMKTIGVHDRVFDVNDKVENSLEPADDTVHESAEPSRGEN
modifications: biotin on primary amines (EZ link NHS biotin)
